Each structure is given as a SMILES string.

Consider two compounds from patent US20120305476A1, “TREATMENT METHOD FOR REDUCING THE PRODUCTION OF AN H2S COMPOUND IN AQUEOUS EFFLUENTS PASSING INTO A PIPE” (CENTRE NATIONAL DE LA RECHERCHE SCIENTIFIQUE (CNRS), priority 2010, published 2012).

The subject of the series is sulfate-reducing bacteria (SRB). The method, then: Experiments were carried out on a sewerage system diagrammatically shown in FIG. 6, comprising a cesspool 3 supplied with effluent 1 from a conduit 11, a lifting pump 4 that was used to supply a force main 2 from the cesspool 3 to a holding tank 8 cooperating with a gravity fed transfer conduit 9 to a treatment plant (not shown).
The force main 2 was 1170 m [meter] long with a nominal diameter of 250 mm [millimeter], giving a volume of 57.5 m^3. The delivery of the lifting pump was 150 m^3/hour. A nitrite tank 12 cooperated with a dosing pump 7 to inject nitrite into the effluents entering the force main 2.
Sodium nitrite NaNO2 was tested in 40% by weight solution with a density of 1.3. […]
Various measurements for the concentration of sulfide in water leaving the force main were carried out. The concentration of sulfide in water was determined by means of an assay kit using the reaction of H2S with aniline forming a colorless intermediate that is oxidized by ferric ions to a colored compound: methylene blue, an optical disk comparator with a color gradient, was used to determine the concentration of sulfide in the solution as a function of its color. The temperatures of the effluent and redox potential were measured at the holding tank or settling tank 8 using standard equipment.

Turning to `O=NO` [nitrite], the “flotation in the holding tank” value (excess nitrite, pump stopped, observed via the manhole) is reported as “fats floated on the surface of the effluent”.

Consider `O=NO` [sodium nitrite], for which the “residual sodium nitrite in the effluents at the outlet from the conduit” value (more than 5-6 g of NaNO2 per gram of dissolved sulfide H2S produced in the absence of treatment) was “residual traces of sodium nitrite were observed”.
